The values that follow are results of earlier work, collected in patent US8153160B2 (Bayer Pharma Aktiengesellschaft, priority 2005, dated 2012).

The conditions of this data set: in vivo; cited from earlier work.

For the compound `COC(=O)C1=C(C)NC(C)=C(C(=O)OC)C1c1ccccc1[N+](=O)[O-]` [Nifedipine], the plasma half-life result is “about 2 hours”.
